# Reference: patent US20250154250A1, “CEACAM5 ADC-ANTI-PD1/PD-L1 COMBINATION THERAPY” (SANOFI, priority 2021, published 2025)
# Some entries share one result that the patent states for a list of compounds.
# B1: naked antibody: humanized anti-CEACAM5 antibody (tusamitamab), CAS Registry No. 2349294-95-5; VH SEQ ID NO: 6, VL SEQ ID NO: 7 (antibody, V domains shown)
# VH: EVQLQESGPGLVKPGGSLSLSCAASGFVFSSYDMSWVRQTPERGLEWVAYISSGGGITYAPSTVKGRFTVSRDNAKNTLYLQMNSLTSEDTAVYYCAAHYFGSSGPFAYVVGQGTLVTVSS
# VL: DIQMTQSPASLSASVGDRVTITCRASENIFSYLAWYQQKPGKSPKLLVYNTRTLAEGVPSRFSGSGSGTDFSLTISSLQPEDFATYYCQHHYGTPFTFGSGTKLEI
# Biological target: T1, CEACAM5 expressing tumor cells (Homo sapiens, UniProt P06731)
# T1 construct: endogenous in cells; host or cells: tumor cells; b313 names MKN45 (DSMZ, ACC 409) and patient-derived xenograft CR-IGR-034P as possible cells
# T1 sequence (P06731 35-676): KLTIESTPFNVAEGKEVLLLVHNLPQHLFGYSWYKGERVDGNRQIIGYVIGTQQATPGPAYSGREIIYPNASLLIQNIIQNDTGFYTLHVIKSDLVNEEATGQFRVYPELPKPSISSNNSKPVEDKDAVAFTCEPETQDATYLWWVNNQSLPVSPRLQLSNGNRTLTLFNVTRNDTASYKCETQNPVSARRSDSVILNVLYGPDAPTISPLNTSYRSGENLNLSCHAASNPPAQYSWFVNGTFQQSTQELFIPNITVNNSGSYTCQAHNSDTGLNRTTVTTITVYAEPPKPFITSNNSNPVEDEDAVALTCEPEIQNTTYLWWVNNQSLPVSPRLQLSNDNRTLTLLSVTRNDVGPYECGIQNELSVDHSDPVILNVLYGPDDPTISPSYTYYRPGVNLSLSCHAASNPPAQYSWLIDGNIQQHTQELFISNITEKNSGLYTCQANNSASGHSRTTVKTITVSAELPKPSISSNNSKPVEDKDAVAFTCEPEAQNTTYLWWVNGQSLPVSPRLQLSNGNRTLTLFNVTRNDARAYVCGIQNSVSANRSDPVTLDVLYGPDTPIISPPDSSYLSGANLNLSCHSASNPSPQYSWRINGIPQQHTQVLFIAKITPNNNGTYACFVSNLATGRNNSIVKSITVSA
# Test: apparent KD on CEACAM5 expressing tumor cells
# Type: binding
# Conditions: read-out: KD^APP
molecule,measurement,value
B1,Kd,0.24 to 0.68 nM
